{"source": "patent US6756206B2", "about": "“Adsorption and removal of endotoxin from physiological fluids using cationic helix peptides” (Commonwealth Biotechnologies, Inc., priority 1998, dated 2004)", "assay": "Neutralization of endotoxin purposely added to plasma or buffer, kinetic chromogenic Limulus amebocyte lysate endotoxin assay", "assay_type": "biochemical", "settings": "1 mg/ml peptide, in water or plasma solution", "description": "The presence of endotoxin may routinely be measured using, for example, a kinetic chromogenic method. The assay involves a complete set of enzyme reactions which are described in detail in the following publications, each of which is hereby incorporated by reference.\nIn the course of the endotoxin assay, a calibration curve is prepared which is a plot of logarithm of the time of the kinetic endpoint of a chromogenic reaction versus the logarithm of known concentrations of endotoxin.\nThus, if endotoxin is added to aqueous buffer solutions or to plasma the amount of endotoxin present can be assayed by reference to the calibration curve. Similarly, if plasma, plasma fractions, patient samples or any test solution contains an endogenous level of endotoxin, the level can also be determined by reference to the calibration curve.\nEndotoxin was purposely added to plasma to a final concentration of 10 ng/mL and increasing concentrations of the compounds Arg Helix #2 (a monomeric cationic helix peptide), Bis Arg Helix #2 (which contains 2 copies of Arg Helix #2), Tris Arg Helix #3 (which contains 3 copies of Arg Helix #3), Tetra Arg Helix #3 (4 copies of Arg Helix #3) or Tris Arg Helix #3 (constrained) (3 copies of Arg Helix #3 constrained by design to present a “binding groove” within the molecule) were added to these same samples (Table 1).", "note": "Some results were stated once for a whole list of compounds, not compound by compound.", "data": [{"substance": "Tris Arg Helix #3: branched-chain peptide, contains 3 copies of Arg Helix #3; SEQ ID NO.:4, FIG. 1B (ARRAARAAARRARAEA; branched, three copies; Tris-Arginine Helix #3)", "values": [{"measurement": "endotoxin quantitatively bound", "result": "> 1", "unit": "µg/mL"}]}]}
